Single values of this set are uncertain.

The labels stand for the following.
B1: Rpb7; numbered along this chain (parent)
chain: MFFIKDLSLNITLHPSFFGPRMKQYLKTKLLEEVEGSCTGKFGYILCVLDYDNIDIQRGRILPTDGSAEFNVKYRAVVFKPFKGEVVDGTVVSCSQHGFEVQVGPMKVFVTKHLMPQDLTFNAGSNPPSYQSSEDVITIKSRIRVKIEGCISQVSSIHAIGSIKEDYLGAI

Variants of B1 are the subject of series [1]. Nature of the series: log2 fold change of mutant abundance, UV-irradiated vs unirradiated; higher = more UV resistant (enriched after UV). Particulars: with Saccharomyces cerevisiae rad7Δ rad26Δ; UV dose (J/m2): 10; genetic background: rad7Δ rad26Δ rpb7Δ + plasmid RPB7 library; outgrowth: 10 cell divisions.
Series [2] covers variants of B1. Kind of series: NOISeq theta enrichment statistic, UV-irradiated vs unirradiated (dimensionless); higher = more UV resistant (enriched after UV). Particulars: with Saccharomyces cerevisiae rad7Δ rad26Δ; UV dose (J/m2): 10; genetic background: rad7Δ rad26Δ rpb7Δ + plasmid RPB7 library; outgrowth: 10 cell divisions.

With MFFIKDLSLNITLHPSFFGPRMKQYLKTKLLEEVEGSCTGKFGYILCVLDYDNIDIQRGRILPTDGSAEFNVKYRAVVFKPFKGEVVDGTVGSCSQHGFEVQVGPMKVFVTKHLMPQDLTFNAGSNPPSYQSSEDVITIKSRIRVKIEGCISQVSSIHAIGSIKEDYLGAI, the “log2 fold change of mutant abundance” value in series [1] is -0.0304. The “NOISeq theta enrichment statistic” value in series [2] is -0.122.
Take MFFIKDLSLNITLHPSFFGPRMKQYLKTKLLEEVEGSCTGKFGYILCVLDYDNMDIQRGRILPTDGSAEFNVKYRAVVFKPFKGEVVDGTVVSCSQHGFEVQVGPMKVFVTKHLMPQDLTFNAGSNPPSYQSSEDVITIKSRIRVKIEGCISQVSSIHAIGSIKEDYLGAI: the “log2 fold change of mutant abundance” value in series [1] worked out at 0.0702. Besides, the “NOISeq theta enrichment statistic” value in series [2] came out at 0.212.
MFFIKDLSLNITLHRSFFGPRMKQYLKTKLLEEVEGSCTGKFGYILCVLDYDNIDIQRGRILPTDGSAEFNVKYRAVVFKPFKGEVVDGTVVSCSQHGFEVQVGPMKVFVTKHLMPQDLTFNAGSNPPSYQSSEDVITIKSRIRVKIEGCISQVSSIHAIGSIKEDYLGAI: in series [1], the “log2 fold change of mutant abundance” value is -0.467. Further, the “NOISeq theta enrichment statistic” value in series [2] was -0.599.
In the same order, the values of MFFIKDLSLNITLHPSFFGPRMKQYLKTKLLEEVEGSCTGKFGYILCVLDYDNIDIQRGRILPTDGSAEFNVKYRAVVFKPFKGEVVDGTVVSCSQHGFEVQVGPMKVFVTKSLMPQDLTFNAGSNPPSYQSSEDVITIKSRIRVKIEGCISQVSSIHAIGSIKEDYLGAI are -0.0122 and -0.0125.
In the same order, the values of MFFIKDLSLNITLHPSFFGPRMKQYLKTRLLEEVEGSCTGKFGYILCVLDYDNIDIQRGRILPTDGSAEFNVKYRAVVFKPFKGEVVDGTVVSCSQHGFEVQVGPMKVFVTKHLMPQDLTFNAGSNPPSYQSSEDVITIKSRIRVKIEGCISQVSSIHAIGSIKEDYLGAI are -0.19 and -0.657.
For MFFIKDLSLNITLHPSFFGPRMKQYLKTKLLEEVEGSCTGKFGYILCVLDYDNIDIQRGRILPTDGSAEFNVKYRAVVFKPFKGEVVDGTVVSCSQYGFEVQVGPMKVFVTKHLMPQDLTFNAGSNPPSYQSSEDVITIKSRIRVKIEGCISQVSSIHAIGSIKEDYLGAI, in that order: -0.304 and -1.04.
Turning to MFFIKDLSLNITLHPSFFGPRMKQYLKTKLLEEVEGSCTGKFGYILCVLDYDNIDIQRGRILPTDGSAEFNVKYRAVVFKPFKGEVVDGTVVSCSQHGFEVQVGPMKVFVTKHLMPQDCTFNAGSNPPSYQSSEDVITIKSRIRVKIEGCISQVSSIHAIGSIKEDYLGAI, the “log2 fold change of mutant abundance” value in series [1] was 0.0389. Also, in series [2], the “NOISeq theta enrichment statistic” value came out at 0.0267.
For MFFIKDLSLNITLHPSFFGPRMKQYLKTKLLEEVEGSCTGKFGYILCVLDYDNIDIQRGRILPTDGSAEFNVKYRAVVFKPFKGEVVDGTVVSCSQHGFEVQVGPMKVFVTKHLMPQDLTFNAGSNPPSYQSSEDVITIKSRLRVKIEGCISQVSSIHAIGSIKEDYLGAI, the “log2 fold change of mutant abundance” value in series [1] amounted to 0.0204. For the same variant, the “NOISeq theta enrichment statistic” value in series [2] amounted to 0.0303.
As for MFFIKDLSLNITLHPSFFGPRMKQYLKTKLLEEVEGSCTGKFGYILCVLDYDNIDIQRGRILPTDGSAEFNVKYRAVVFKPFKGEVVDGTVVSCSQHGSEVQVGPMKVFVTKHLMPQDLTFNAGSNPPSYQSSEDVITIKSRIRVKIEGCISQVSSIHAIGSIKEDYLGAI, the “log2 fold change of mutant abundance” value in series [1] stood at 0.0391. For the same variant, the “NOISeq theta enrichment statistic” value in series [2] was 0.132.
For MFFIKDLSLNITLHPSFFGPRMKQYLKTKLLEEVEGSCTGKFGYILCVLDYDNIDIQRGRILPTDGSAEFNVKYRAVVFKPFKGTVVDGTVVSCSQHGFEVQVGPMKVFVTKHLMPQDLTFNAGSNPPSYQSSEDVITIKSRIRVKIEGCISQVSSIHAIGSIKEDYLGAI, the “log2 fold change of mutant abundance” value in series [1] was found to be 0.219. The “NOISeq theta enrichment statistic” value in series [2] was 0.229.
In the same order, the values of MFFIKDLSLNITLHPSFFGPRMKQYLKTKLLEEVEGSCTGKFGYILCVLDYDNIDIQRGRILPTDGSAEFNVKYRYVVFKPFKGEVVDGTVVSCSQHGFEVQVGPMKVFVTKHLMPQDLTFNAGSNPPSYQSSEDVITIKSRIRVKIEGCISQVSSIHAIGSIKEDYLGAI are 0.449 and 0.266.
For MFFIKDLSLNITLHPSFFGPRMKQYLKTKLLEEVEGSCTGKFGYILCVLDYDNIDIQRGRILPTDGSAEFNVKYRAVVFKPFKGEVVDGTVVSCIQHGFEVQVGPMKVFVTKHLMPQDLTFNAGSNPPSYQSSEDVITIKSRIRVKIEGCISQVSSIHAIGSIKEDYLGAI, the “log2 fold change of mutant abundance” value in series [1] was determined as 0.0109. Moreover, the “NOISeq theta enrichment statistic” value in series [2] was found to be 0.021.
As to MFFIKDLSLNITLHPSFFGPRMKQYLKTKLLEEVEGSCTGKFGYILCVLDYDNIDIQGGRILPTDGSAEFNVKYRAVVFKPFKGEVVDGTVVSCSQHGFEVQVGPMKVFVTKHLMPQDLTFNAGSNPPSYQSSEDVITIKSRIRVKIEGCISQVSSIHAIGSIKEDYLGAI, the “log2 fold change of mutant abundance” value in series [1] was -0.12. The “NOISeq theta enrichment statistic” value in series [2] is -0.164.
MFFIKDLSLNITLHPSFFGPRMKQYLKTKLLEEVEGSCTGKFGYILCVLDIDNIDIQRGRILPTDGSAEFNVKYRAVVFKPFKGEVVDGTVVSCSQHGFEVQVGPMKVFVTKHLMPQDLTFNAGSNPPSYQSSEDVITIKSRIRVKIEGCISQVSSIHAIGSIKEDYLGAI: the “log2 fold change of mutant abundance” value in series [1] came out at 0.327. In addition, the “NOISeq theta enrichment statistic” value in series [2] was determined as 0.24.
For the variant MFFIKDLSLNITLHPSFFGPRMKQYLKTKLLEEVEGSCTGKFGYILCVLDYDNIDIQRGRILPTDGSAEFNVKYRAVVFKPFKGEVVDWTVVSCSQHGFEVQVGPMKVFVTKHLMPQDLTFNAGSNPPSYQSSEDVITIKSRIRVKIEGCISQVSSIHAIGSIKEDYLGAI, the “log2 fold change of mutant abundance” value in series [1] is 0.331. For the same variant, the “NOISeq theta enrichment statistic” value in series [2] worked out at 0.311.
Take MFFIKDLSLNITLHPSFFGPRMKQYLKTKLLEGVEGSCTGKFGYILCVLDYDNIDIQRGRILPTDGSAEFNVKYRAVVFKPFKGEVVDGTVVSCSQHGFEVQVGPMKVFVTKHLMPQDLTFNAGSNPPSYQSSEDVITIKSRIRVKIEGCISQVSSIHAIGSIKEDYLGAI: the “log2 fold change of mutant abundance” value in series [1] was -0.169. Further, the “NOISeq theta enrichment statistic” value in series [2] is -0.346.
For MFFIKDLSLNITLHPSFFGPRMKQYLKTKLLEEVEGSCTGKFGYILCVLDYDNIDIQRGRILPTDGSAEFNVKYRAVVFKPFKGEVVDGTVVSCSQHSFEVQVGPMKVFVTKHLMPQDLTFNAGSNPPSYQSSEDVITIKSRIRVKIEGCISQVSSIHAIGSIKEDYLGAI, in that order: 0.0415 and 0.048.

The record behind these values is the supplement of paper PMC10382679.
